In PubChem BioAssay AID540256 (National Center for Advancing Translational Sciences (NCATS), 2011):
Screen size: about 300,000 compounds; about 3,700 (1.2%) were called active. This list was built around the results that the source calls inconclusive (neither active nor inactive); the mix of calls is not that of the screen. Calls come from the whole dose curve; tested in HEK293 cells. Potencies beside an inconclusive call are fits to weak or partial responses and may not hold up.

Assay: qHTS for Inhibitors of binding or entry into cells for Lassa Virus; note: nearly all actives have a fitted effect of over 50% in size
Details: Lassa virus pseudotype entry inhibition, cell reporter; series mostly up to 37.9 µM
Potency is the fitted concentration of half-maximal effect.

Row | Structure (SMILES) | Potency
1 | CCCN1CCCc2cc(CN(CCCN3CCOCC3)C(=O)Nc3ccc(Cl)c(Cl)c3)ccc21 | inconclusive: 35.5 µM [inhibitor, single point]
2 | COC(=O)c1ccc(-n2c(C)cc(C(=O)COC(=O)CC3Sc4ccccc4NC3=O)c2C)cc1 (centres undefined) | inconclusive: 35.5 µM [inhibitor, single point]
3 | CCCN1CCc2cc(O)cc3c2[C@H]1Cc1ccc(O)c(O)c1-3 | inactive
4 | CCC(=O)n1nc(-c2cccnc2)nc1NCc1cccs1 | inconclusive: 5.62 µM [inhibitor, single point]
5 | Cc1cccc2[nH]c3c(N4CC=C(c5ccc(F)cc5)CC4)ncnc3c12 | inconclusive: 0.891 µM [inhibitor, full curve, poor fit]
6 | CCOC(=O)N1CCC(N(CCN(C)C)C(=S)Nc2ccc(Oc3ccccc3)cc2)CC1 | inconclusive: 2.24 µM [inhibitor, full curve, poor fit]
7 | Cc1ccc(S(=O)(=O)N(C)c2ccc(C(=O)NCc3ccccn3)cc2)cc1 | inconclusive: 3.16 µM [inhibitor, single point]
8 | Cc1ccc(NC(=S)NNC(=O)c2ccccc2O)c(C)c1 | inactive
9 | COc1ccc(/C=C(/C#N)C(=O)Nc2cc(C)ccc2C)cc1C(=O)O | inconclusive: 0.794 µM [activator, partial curve, poor fit]
10 | O=C(CNC(=O)c1ccccc1F)NNC(=O)c1ccccc1O | inconclusive: 35.5 µM [activator, single point]
11 | CC1=C(c2ccc(Cl)cc2)S(=O)(=O)N=C1N1CCN(c2cc(C)ccc2C)CC1 | inconclusive: 11.2 µM [inhibitor, single point]
12 | O=C(Nc1nc(-c2ccccc2Cl)cs1)c1cccnc1 | inactive
13 | COc1ccc(CC(=O)OCC(=O)Nc2ccc(F)cc2)cc1 | inconclusive: 0.708 µM [inhibitor, single point]
14 | CC(=O)c1ccc(N2CCC(c3cc(-c4ccc(Cl)cc4Cl)n[nH]3)CC2)c([N+](=O)[O-])c1 | inconclusive: 29.1 µM [inhibitor, single point]
15 | Cc1nc2c(=O)n(C)c(=O)nc-2n(C)n1 | active: 0.562 µM
16 | COc1ccc(C2C(C(=O)N3CCN(c4ccccc4)CC3)c3ccccc3C(=O)N2C)cc1OC (centres undefined) | inconclusive: 18.3 µM [inhibitor, partial curve, poor fit]
17 | CCN(C(=O)C(NS(=O)(=O)c1ccc(Br)s1)c1ccccc1)c1ccc(C)c(C)c1 (centres undefined) | inconclusive: 12.6 µM [inhibitor, partial curve, poor fit]
18 | O=c1cc(/C=C/c2c(F)cccc2Cl)[nH]c2ccccc12 | inactive
19 | COc1ccc(S(=O)(=O)N2CCN(CCc3ccccc3)CC2)c(OC)c1 | inconclusive: 1.58 µM [inhibitor, partial curve, poor fit]
20 | COc1ccc(C(=O)OCCCOC(=O)c2ccc(OC)cc2OC)c(OC)c1 | inactive
21 | Cc1c(/C=N/NC(=O)c2cccnc2)c2ccccn2c1C(=O)c1ccc(F)cc1 | inactive
22 | Cc1ccccc1NC(=O)NC1(C(=O)N2CCN(C)CC2)CCCCC1 | inconclusive: 3.16 µM [inhibitor, single point]
23 | Cc1ccc(C(=O)OCc2nc(N)nc(Nc3ccccc3C)n2)cc1 | inconclusive: 20 µM [inhibitor, single point]

Row | Structure (SMILES) | Potency
24 | COc1cc(C(F)(F)F)c(C(=O)N(C)Cc2cccc(Cl)c2)cn1 | inconclusive: 20 µM [activator, single point]
25 | N#Cc1ccc(NC(=O)c2cccs2)nc1 | inactive
26 | Clc1ccc(-c2cn3cc(Cc4ccccc4)sc3n2)cc1 | inconclusive: 6.31 µM [activator, single point]
27 | CCOC(=O)N1CCN(C(=O)CSCc2nc(-c3ccccc3F)oc2C)CC1 | inactive
28 | COc1cc(C2CC(=O)c3c([nH]c(C(=O)OC4CCCC4)c3C)C2)cc(OC)c1OC (centres undefined) | inconclusive: 35.5 µM [inhibitor, single point]
29 | CCOC(=O)N1CCC(NCCNC(=O)c2ccccc2)CC1 | inactive
30 | Cc1ccc(NC(=S)c2ccc3ccccc3n2)c(C)c1 | inconclusive: 1.12 µM [activator, full curve, poor fit]
31 | COc1ccc(C(NC(=O)c2ccc(=O)[nH]c2)C(=O)Nc2ccc(C(C)C)cc2)cc1 (centres undefined) | inconclusive: 35.5 µM [inhibitor, single point]
32 | CCOC(=O)c1c(NC(=O)COc2ccccc2)sc(C(C)=O)c1C | inactive
33 | CCN(C(=O)Cn1nc(Cc2ccncc2)c2ccccc2c1=O)c1ccc(OC)cc1 | inactive
34 | CCOc1cc(C(=O)OCc2cccc(OC)c2OC)ccc1OCC(=O)N1CCOCC1 | inconclusive: 8.91 µM [inhibitor, partial curve]
35 | COCCCNc1nc2c(c(=O)[nH]c(=O)n2C)n1CC(O)COc1ccc(Cl)cc1 (centres undefined) | inactive
36 | COC(=O)c1ccc(S(=O)(=O)N2CCc3ccccc32)cc1 | inconclusive: 3.16 µM [inhibitor, full curve]
37 | Cc1cc(C)c2c(=O)c3c(oc2c1)C(=O)N(CCCOC(C)C)C3c1ccccc1F (centres undefined) | inactive
38 | CCCC1=Nc2cc(C(=O)NC3CCCCC3)ccc2Sc2ccc(C)cc21 | inconclusive: 1.12 µM [inhibitor, full curve, poor fit]
39 | COc1ccc2cc(-c3ccccc3)c(=O)oc2c1 | active: 4.47 µM
40 | CC(=O)c1cccc(NC(=O)c2ccc3c(c2)N(Cc2ccc(C)cc2)CCS3)c1 | inconclusive: 4.47 µM [inhibitor, full curve, poor fit]
41 | CC(=O)Nc1ccc(C(=O)CSc2nnnn2C2CCCC2)cc1 | inactive
42 | Cc1cc(NC(=O)COC(=O)c2nccnc2N)n(-c2ccccc2)n1 | inactive
43 | CN(C)S(=O)(=O)c1cccc(NC(=O)c2ccc(COc3ccccc3)cc2)c1 | inconclusive: 22.4 µM [inhibitor, single point]
44 | Cc1ccc(NC(=O)CN2C(=O)NC(C)(c3ccc4c(c3)OCO4)C2=O)cc1 (centres undefined) | inconclusive: 5.62 µM [inhibitor, single point]
45 | O=[N+]([O-])c1cc(/C=N/Nc2nc3ccccc3[nH]2)c(O)cc1O | active: 10 µM
46 | Cc1ccc(NC(NC(=O)c2cccs2)C(Cl)(Cl)Cl)cc1 (centres undefined) | inconclusive: 14.1 µM [inhibitor, partial curve, poor fit]

An excerpt from further up, for reference:
Row | Structure (SMILES) | Potency
2 | COC(=O)c1ccc(-n2c(C)cc(C(=O)COC(=O)CC3Sc4ccccc4NC3=O)c2C)cc1 (centres undefined) | inconclusive: 35.5 µM [inhibitor, single point]
3 | CCCN1CCc2cc(O)cc3c2[C@H]1Cc1ccc(O)c(O)c1-3 | inactive
4 | CCC(=O)n1nc(-c2cccnc2)nc1NCc1cccs1 | inconclusive: 5.62 µM [inhibitor, single point]

More entries

Row | Structure (SMILES) | Potency
47 | CC(=O)Nc1ccc(S(=O)(=O)NCC2CCC(C(=O)NCCc3ccc(C)cc3)CC2)cc1 (centres undefined) | inactive
48 | CC(C)CCNC(=O)C(c1ccc(O)cc1)N(C(=O)C1COc2ccccc2O1)c1cccc(O)c1 (centres undefined) | inconclusive: 12.6 µM [inhibitor, partial curve, poor fit]
49 | CC1CCCC(NC(=O)CN2CCN(Cc3ccc(Cl)cc3)C2=O)C1C (centres undefined) | inconclusive: 11.2 µM [inhibitor, partial curve, poor fit]
50 | CCn1c(C)[n+](CCOC(C)=O)c2cc(Cl)c(Cl)cc21 | inconclusive: 35.5 µM [inhibitor, partial curve, poor fit]
51 | O=C(Nc1ccc(OC(F)F)c(Cl)c1)c1ccccn1 | inconclusive: 0.0651 µM [activator, full curve, poor fit]
52 | c1ccc2c(c1)ccn2CCCN1CCCCC1 | inactive
53 | Nc1c(Cl)ncnc1N/N=C/c1ccccn1 | active: 2.51 µM
54 | CCn1c(SCC(=O)OC)nnc1-c1ccccc1 | inconclusive: 2 µM [inhibitor, partial curve, poor fit]
55 | COc1c(C(=O)NNC(=O)c2ccccc2)csc1Br | inconclusive: 6.31 µM [inhibitor, single point]
56 | Cc1ccc2nc(Nc3nc(-c4ccccc4)cc(=O)[nH]3)nc(C)c2c1 | inactive
57 | Cc1cc(C)cc(OCC(=O)N2CCC(c3nc4ccccc4o3)CC2)c1 | inactive
58 | COc1ccc(C)cc1NC(=O)Cn1cc(S(=O)(=O)N2CCC(C)CC2)c2ccccc2c1=O | inactive
59 | CCCNC(=O)c1cccc(Br)c1 | inactive
60 | CCCC(=O)NC(c1ccccc1Cl)c1c(O)ccc2ccccc12 (centres undefined) | inconclusive: 18.4 µM [inhibitor, single point]
61 | COC(=O)c1ccc(/C=C2/SC(=S)N(CCC(=O)N3CCOCC3)C2=O)cc1 | inconclusive: 6.31 µM [inhibitor, single point]
62 | CN(C)/C=N/C1=C(C#N)C(c2ccc(Br)cc2)c2ccc3ccccc3c2O1 (centres undefined) | inconclusive: 3.98 µM [inhibitor, full curve, poor fit]
63 | C=C(C)C1CC=C(C)/C(=N/NC(=O)c2ccoc2C)C1 (centres undefined) | inconclusive: 11.6 µM [activator, partial curve, poor fit]
64 | CCc1c(C)c2cc3c(c(C)c2oc1=O)OCN(CCc1ccc(OC)c(OC)c1)C3 | inactive
65 | O=C(O)CC(C(=O)O)N1C(=O)/C(=C/c2ccc(-c3nc4ccccc4s3)o2)SC1=S (centres undefined) | inconclusive: 35.5 µM [activator, single point]
66 | COc1cc(C2NC(=O)NC(C)=C2C(=O)OC2CCCC(C)C2)ccc1O (centres undefined) | inconclusive: 9.2 µM [inhibitor, partial curve, poor fit]
67 | COc1ccc(N2CCN(C(=O)c3ccc(NS(=O)(=O)c4ccc(F)cc4)cc3)CC2)cc1 | inactive
68 | O=C(NCc1ccco1)c1ccccc1NC(=O)C1CC(=O)N(c2ccc(Cl)cc2)C1 (centres undefined) | inconclusive: 25.9 µM [inhibitor, single point]
69 | Oc1cccc(C(O)CNCc2ccc(-c3ccccc3)cc2)c1 (centres undefined) | inconclusive: 35.5 µM [inhibitor, single point]
